Results published in the supplement of paper PMC11546906.
Counter-ions that a name gives are not always drawn. This is one part of the list. This data set is noisy: repeats of one test often differ as much as different tests do.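 Screen of FDA-approved drugs, each combined with colistin at one-eighth of its MIC, against a multidrug-resistant mcr-1-positive clinical E. coli isolate; growth read as OD600 after 24 h. Bacteria without drug were the growth control and plain broth the blank. A combination counted as active when OD600 fell below 0.2.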

Each molecule was assayed on Escherichia coli 42 (mcr-1-positive clinical isolate) (assay: OD600 after 24 h growth with compound plus colistin (absorbance units (OD600)); higher = more bacterial growth (less inhibition)). Conditions: first compound 25 µM; colistin concentration 0.5 ug/mL; incubation time 24 h; 37 °C.

OD600, inactive:
Cc1onc(-c2ccccc2)c1C(=O)N[C@@H]1C(=O)N2[C@@H]1SC(C)(C)[C@@H]2C(=O)O [Oxacillin sodium salt] + CCC(C)CCCC(=O)N[C@@H](CCN)C(=O)N[C@H](C(=O)N[C@@H](CCN)C(=O)N[C@H]1CCNC(=O)[C@H]([C@@H](C)O)NC(=O)[C@H](CCN)NC(=O)[C@H](CCN)NC(=O)[C@H](CC(C)C)NC(=O)[C@@H](CC(C)C)NC(=O)[C@H](CCN)NC1=O)[C@@H](C)O [colistin] 1, Nc1nc2[nH]cc(CCc3ccc(C(=O)N[C@@H](CCC(=O)O)C(=O)O)cc3)c2c(=O)[nH]1 [Pemetrexed disodium] + CCC(C)CCCC(=O)N[C@@H](CCN)C(=O)N[C@H](C(=O)N[C@@H](CCN)C(=O)N[C@H]1CCNC(=O)[C@H]([C@@H](C)O)NC(=O)[C@H](CCN)NC(=O)[C@H](CCN)NC(=O)[C@H](CC(C)C)NC(=O)[C@@H](CC(C)C)NC(=O)[C@H](CCN)NC1=O)[C@@H](C)O [colistin] 0.91, Cc1cnc(C(=O)NCCc2ccc(S(=O)(=O)NC(=O)NC3CCCCC3)cc2)cn1 [Glipizide] + CCC(C)CCCC(=O)N[C@@H](CCN)C(=O)N[C@H](C(=O)N[C@@H](CCN)C(=O)N[C@H]1CCNC(=O)[C@H]([C@@H](C)O)NC(=O)[C@H](CCN)NC(=O)[C@H](CCN)NC(=O)[C@H](CC(C)C)NC(=O)[C@@H](CC(C)C)NC(=O)[C@H](CCN)NC1=O)[C@@H](C)O [colistin] 0.977, Cc1c(Nc2ncccc2C(=O)O)cccc1C(F)(F)F [Flunixin meglumine] + CCC(C)CCCC(=O)N[C@@H](CCN)C(=O)N[C@H](C(=O)N[C@@H](CCN)C(=O)N[C@H]1CCNC(=O)[C@H]([C@@H](C)O)NC(=O)[C@H](CCN)NC(=O)[C@H](CCN)NC(=O)[C@H](CC(C)C)NC(=O)[C@@H](CC(C)C)NC(=O)[C@H](CCN)NC1=O)[C@@H](C)O [colistin] 1.06, COc1ccc2[nH]c(SCc3ncc(C)c(OC)c3C)nc2c1 [Omeprazole sulfide] + CCC(C)CCCC(=O)N[C@@H](CCN)C(=O)N[C@H](C(=O)N[C@@H](CCN)C(=O)N[C@H]1CCNC(=O)[C@H]([C@@H](C)O)NC(=O)[C@H](CCN)NC(=O)[C@H](CCN)NC(=O)[C@H](CC(C)C)NC(=O)[C@@H](CC(C)C)NC(=O)[C@H](CCN)NC1=O)[C@@H](C)O [colistin] 1.03, CC(=O)O[C@]1(C(C)=O)CC[C@H]2[C@@H]3C=C(C)C4=CC(=O)CC[C@]4(C)[C@H]3CC[C@@]21C [Megestrol acetate] + CCC(C)CCCC(=O)N[C@@H](CCN)C(=O)N[C@H](C(=O)N[C@@H](CCN)C(=O)N[C@H]1CCNC(=O)[C@H]([C@@H](C)O)NC(=O)[C@H](CCN)NC(=O)[C@H](CCN)NC(=O)[C@H](CC(C)C)NC(=O)[C@@H](CC(C)C)NC(=O)[C@H](CCN)NC1=O)[C@@H](C)O [colistin] 1.14, NCCCCCC(=O)O [6-Aminocaproic acid] + CCC(C)CCCC(=O)N[C@@H](CCN)C(=O)N[C@H](C(=O)N[C@@H](CCN)C(=O)N[C@H]1CCNC(=O)[C@H]([C@@H](C)O)NC(=O)[C@H](CCN)NC(=O)[C@H](CCN)NC(=O)[C@H](CC(C)C)NC(=O)[C@@H](CC(C)C)NC(=O)[C@H](CCN)NC1=O)[C@@H](C)O [colistin] 0.983, Cc1cc(C2CCCCC2)n(O)c(=O)c1 [Ciclopirox] + CCC(C)CCCC(=O)N[C@@H](CCN)C(=O)N[C@H](C(=O)N[C@@H](CCN)C(=O)N[C@H]1CCNC(=O)[C@H]([C@@H](C)O)NC(=O)[C@H](CCN)NC(=O)[C@H](CCN)NC(=O)[C@H](CC(C)C)NC(=O)[C@@H](CC(C)C)NC(=O)[C@H](CCN)NC1=O)[C@@H](C)O [colistin] 0.947, CC(=O)N1CCN(c2ccc(OCC3COC(Cn4ccnc4)(c4ccc(Cl)cc4Cl)O3)cc2)CC1 (centres undefined) [Ketoconazole] + CCC(C)CCCC(=O)N[C@@H](CCN)C(=O)N[C@H](C(=O)N[C@@H](CCN)C(=O)N[C@H]1CCNC(=O)[C@H]([C@@H](C)O)NC(=O)[C@H](CCN)NC(=O)[C@H](CCN)NC(=O)[C@H](CC(C)C)NC(=O)[C@@H](CC(C)C)NC(=O)[C@H](CCN)NC1=O)[C@@H](C)O [colistin] 1.1
